Measurements: article PMC7862700
This is a selection; strong and weak results do not stand in their true shares. For part of these data: At the low end of the ranking the order means little. Some of the results follow. For part of these data: Construct or isoform of the protein are uncertain.

Columns and labels:
Test in all cases: DAPPL (digital affinity profiling via proximity ligation, sequencing)
Conditions in all cases: 10 mM Tris-HCl pH 7.5, 50 mM NaCl, 1 mM DTT, 4% glycerol, room temperature, 30 min; GST-TFs on glutathione beads, 16-mer random dsDNA library, 0.1% …; high values mean tight binding; double strand, one strand shown; scale: fold enrichment (6-mer frequency, TF over GST control)
GABPA = target: T1, GABPA (UniProt Q06546)
T1 sequence: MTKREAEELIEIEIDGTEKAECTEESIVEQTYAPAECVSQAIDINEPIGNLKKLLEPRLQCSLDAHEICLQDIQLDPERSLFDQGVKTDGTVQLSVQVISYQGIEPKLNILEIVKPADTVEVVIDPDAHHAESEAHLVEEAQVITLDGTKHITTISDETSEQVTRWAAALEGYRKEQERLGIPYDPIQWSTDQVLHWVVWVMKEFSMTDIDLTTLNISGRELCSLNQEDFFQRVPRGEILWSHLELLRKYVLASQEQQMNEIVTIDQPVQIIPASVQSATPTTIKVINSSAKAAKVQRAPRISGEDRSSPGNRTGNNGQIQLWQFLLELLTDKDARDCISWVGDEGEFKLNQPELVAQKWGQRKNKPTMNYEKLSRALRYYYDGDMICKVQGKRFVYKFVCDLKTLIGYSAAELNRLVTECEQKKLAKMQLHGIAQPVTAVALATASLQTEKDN

ETS1 = target: T2, ETS1 (UniProt P14921)
T2 sequence: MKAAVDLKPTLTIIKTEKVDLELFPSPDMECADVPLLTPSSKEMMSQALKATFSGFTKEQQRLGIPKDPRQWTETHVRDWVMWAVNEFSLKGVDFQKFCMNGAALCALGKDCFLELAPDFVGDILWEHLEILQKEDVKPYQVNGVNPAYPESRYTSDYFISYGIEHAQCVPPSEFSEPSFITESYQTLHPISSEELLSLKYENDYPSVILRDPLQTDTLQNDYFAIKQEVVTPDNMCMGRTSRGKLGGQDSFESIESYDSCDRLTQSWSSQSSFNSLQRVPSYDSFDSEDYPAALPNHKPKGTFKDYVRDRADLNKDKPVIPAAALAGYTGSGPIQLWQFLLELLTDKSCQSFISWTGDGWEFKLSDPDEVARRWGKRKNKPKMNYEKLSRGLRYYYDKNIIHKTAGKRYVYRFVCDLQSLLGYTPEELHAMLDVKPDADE

SPDEF = target: T3, SPDEF (UniProt O95238)
T3 sequence: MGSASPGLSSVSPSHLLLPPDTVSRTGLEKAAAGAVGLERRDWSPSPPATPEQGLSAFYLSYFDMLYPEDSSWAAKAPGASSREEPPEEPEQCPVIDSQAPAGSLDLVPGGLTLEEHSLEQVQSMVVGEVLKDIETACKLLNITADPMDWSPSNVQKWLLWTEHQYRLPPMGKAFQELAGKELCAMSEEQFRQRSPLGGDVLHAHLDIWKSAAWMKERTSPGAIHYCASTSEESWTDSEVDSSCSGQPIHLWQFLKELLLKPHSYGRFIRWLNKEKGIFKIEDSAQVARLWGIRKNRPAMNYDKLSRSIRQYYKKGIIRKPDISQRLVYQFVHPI

| Sequence | binding signal (GABPA) | binding signal (ETS1) | binding signal (SPDEF) |
| --- | --- | --- | --- |
| AGACCG | 0.505 | 0.451 | 0.484 |
| TGCGGG | 0.829 | 0.783 | 0.754 |
| GGTCAA | 0.961 | 0.962 | 0.932 |
| GCGGGA | 0.379 | 0.368 | 0.37 |
| GCGGCC | 0.872 | 0.77 | 0.727 |
| ATCCAG | 0.876 | 0.868 | 0.786 |
| AGGCCA | 0.726 | 0.639 | 0.629 |
| TCGGCA | 0.671 | 0.694 | 0.659 |
| TGCGTG | 0.586 | 0.632 | 0.671 |
| GCATGA | 0.872 | 0.757 | 0.825 |
| CCAGTA | 0.667 | 0.677 | 0.654 |
| GCCATA | 0.984 | 0.859 | 0.959 |
| ATGAGT | 0.671 | 0.648 | 0.661 |
| CCGGAG | 0.48 | 0.515 | 0.591 |
| CAACAG | 0.966 | 0.93 | 0.945 |
| CAGCTG | 0.83 | 0.837 | 0.724 |
| CGAGAG | 0.404 | 0.414 | 0.362 |
| GCGCAT | 0.826 | 0.872 | 0.816 |
| GAACGC | 0.775 | 0.735 | 0.716 |
| ATCAGG | 0.931 | 1 | 0.93 |
| GCGGGG | 0.475 | 0.481 | 0.462 |

| Sequence | binding signal (GABPA) | binding signal (ETS1) | binding signal (SPDEF) |
| --- | --- | --- | --- |
| GAGTCC | 0.381 | 0.365 | 0.438 |
| GGCGCC | 0.74 | 0.652 | 0.597 |
| CGGGAG | 0.198 | 0.219 | 0.219 |
| GTTCGG | 0.598 | 0.64 | 0.612 |
| TGCAGT | 0.881 | 0.812 | 0.866 |
| GGCCCG | 0.806 | 0.73 | 0.808 |
| TGAGGG | 0.634 | 0.633 | 0.606 |
| CAGGCT | 0.746 | 0.849 | 0.72 |
| GACAGT | 0.507 | 0.437 | 0.464 |
| CAGGAC | 0.822 | 0.789 | 0.862 |
| AGTCTG | 0.624 | 0.657 | 0.575 |
| AGAGTG | 0.633 | 0.646 | 0.601 |
| CGTGGG | 0.404 | 0.371 | 0.317 |
| AGCCGT | 0.468 | 0.525 | 0.425 |
| GACCGT | 0.514 | 0.453 | 0.402 |
| AAGGAG | 0.36 | 0.328 | 0.334 |
| ACAGCG | 0.738 | 0.832 | 0.729 |
| CGGTAG | 0.599 | 0.635 | 0.706 |
| CGAGGC | 0.682 | 0.696 | 0.657 |
| GAGGAA | 0.738 | 0.779 | 0.631 |
| GCATGC | 0.854 | 0.82 | 0.818 |

An excerpt from further up, as a working copy:

| Sequence | binding signal (GABPA) | binding signal (ETS1) | binding signal (SPDEF) |
| --- | --- | --- | --- |
| ATCAGG | 0.931 | 1 | 0.93 |
| GCGGGG | 0.475 | 0.481 | 0.462 |
| GAGTCC | 0.381 | 0.365 | 0.438 |
| GGCGCC | 0.74 | 0.652 | 0.597 |
| CGGGAG | 0.198 | 0.219 | 0.219 |
| GTTCGG | 0.598 | 0.64 | 0.612 |
| TGCAGT | 0.881 | 0.812 | 0.866 |
| GGCCCG | 0.806 | 0.73 | 0.808 |
| TGAGGG | 0.634 | 0.633 | 0.606 |
| CAGGCT | 0.746 | 0.849 | 0.72 |
